# Laboratory results: US5541310A, “Herbicide resistant plants” (Ciba-Geigy Corporation, priority 1994, dated 1996)
# At least one structure is not confirmed: it was looked up by name or label, or the drawing left a doubt.
# Target: wheat germ IGPD
# Test: IGPD enzyme activity / inhibitor assay with purified wheat germ IGPD
# Type: biochemical
# Conditions: pH 6.6; competitive; read-out: Ki (competitive inhibition of wheat germ IGPD)
# Procedure: Purified IGPD may be used in assays to discover novel inhibitors of the enzyme, which inhibitors potentially would function as commercially viable herbicides. Typically, the inhibitory effect of a chemical on IGPD is determined by the absorbance difference at 370 nm using an absorbance coefficient of 10,400, which signifies the production of IAP from IGP. See, Ames et al., J. Biol. Chem. 212:687-697 (1957). Inhibitor solutions in various concentrations, e.g. 1 mM, 100 μM, 10 μM, and 1 μM, are added to the reaction mixture prior to the initiation of the enzyme reaction. A representative reaction mixture contains 50 mM Bis-Tris-propane-HCl (pH 6.6), 100 mM 2-mercaptoethanol, 1 mM MnCl2, 1 mM IGP, and between 2 and 5 mU of IGPD. Once IGP is added, the reaction is rim at 30° C., and is stopped by the addition of perchlorie acid up to 10% volume of the reaction mixture. […] Five volumes of 5N NaOH are added to the solution, and after two minutes, enolized IA is measured spectroscopically. […]
# IGPD activity was determined by measuring imidazoleacetol obtained by hydrolyzing IAP. […] Five volumes of 5N NaOH were added to the solution, and after 2 minutes, the concentration of enolized imidazoleacetol was determined from the absorbance at 370 nm using the absorbance coefficient of 10,400 (Ames and Mitchell, 1955). […]
smiles,measurement,value
Nc1nc[nH]n1 [Aminotriazole],Ki,~46 µM
